Among the data in paper PMC7156367, “Cell surface processing of the P1 adhesin of Mycoplasma pneumoniae identifies novel domains that bind host molecules” (Scientific Reports, 2020) are binding values, retold here.

These are yes or no findings as the source states them, for the method shown. Binding can be weak; no strength is given. Where a sequence is shown, tags or fusion partners need not be part of it.

What all share (assay): ELISA; 15 µg/ml of C-terminal P1 fragment bound to wells, incubated with host protein at several concentrations; detected with antiserum against the host protein, absorbance at 450 nm; both purified
In general terms: ELISA stands for enzyme-linked immunosorbent assay.

Assay [1] has as its target T1, P1-15, synthetic C-terminal peptide of P1 adhesin with N-terminal biotin (Mycoplasma pneumoniae).
T1 sequence (peptide, N-terminal biotin tag): PGAPKPPVQPPKKPA

The target of assay [2] is T2, P1-30, synthetic C-terminal peptide of P1 adhesin (Mycoplasma pneumoniae).
T2 sequence (peptide): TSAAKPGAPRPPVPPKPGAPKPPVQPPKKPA

In assay [3] the target is T3, Recombinant protein RP15 (C-terminal region of P1 adhesin) (Mycoplasma pneumoniae).
T3 sequence: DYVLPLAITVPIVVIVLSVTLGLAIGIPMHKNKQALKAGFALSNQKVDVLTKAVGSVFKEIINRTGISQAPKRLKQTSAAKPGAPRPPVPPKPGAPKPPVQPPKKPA

As for Human plasma fibrinogen (complex), the binding result in assay [1] was “no binding”; in assay [2], “binds”; in assay [3], “binds”.

For the substance Human plasma fibronectin (ELISA), the values for the binding entry in assay [1], in assay [2] and in assay [3] were “no binding”, “binds” and “binds”, respectively.

As to Human Glu-plasminogen (ELISA), the binding entry in assay [1], in assay [2] and in assay [3] was “binds” each time.
